In patent US5821039A, “Photographic element containing neutral dye-forming resorcinol coupler” (Eastman Kodak Company, priority 1997, dated 1998):

What was measured:
[1] = Dye image density at maximum exposure, color negative film format, Kodak Flexicolor (C-41) process; details: for Blue density at maximum exposure / Green density at maximum exposure / Red density at maximum exposure: color negative film, C-41 process, 0.27 g/m^2 of coupler
Description: These samples were exposed imagewise through a stepped density test object and subjected to the Kodak Flexicolor (C-41) Process as described in British Journal of Photography Annual, 1988, pp. 196-198 using fresh unseasoned processing solutions.

[2] = Dye image density, color paper format, Kodak Ektacolor RA-4 process; details: 1.08 g/m^2 of S-1
Description: This imaging layer was overcoated with a UV layer consisting of 1.33 g/m^2 gelatin, 0.73 g/m^2 of 2-(2H-benzotriazol-2-yl)-4,6-bis(1,1-dimethylpropyl)phenol and 0.13 g/m^2 of Tinuvin 326 (trademark of Ciba-Geigy) and finally, an overcoat of gelatin at 1.4 g/m^2 and bis(vinylsulfonyl)methane hardener at 0.14 g/m^2. This sample was given a stepped exposure and processed according to the Kodak Ektacolor RA-4 process as described in The British Journal of Photography Annual of 1988, pp 198-199.

SMILES | Blue density at maximum exposure [1] | density / neutral dye formation (in words) ([1]; conventional processing, data of Table I) | Green density at maximum exposure [1] | Red density at maximum exposure [1] | Blue density [2] | Green density [2] | Red density [2]
CCCCCCCCCCCCCCOc1ccccc1NC(=O)c1cccc(S(=O)(=O)Nc2c(O)cccc2O)c1 [CS-1, reference compound] | Trace | fails to provide measurable density | – | – | – | – | –
CCCCCCCCCCCCCCCCCCNC(=O)c1cc(O)cc(O)c1 [S-1, 3,5-Dihydroxy-N-n-octadecylbenzamide] | .461 | – | .493 | .343 | .800 | .870 | .800
CCCCCCCCCCCCCCCCCCNC(=O)c1cc(O)c(Br)c(O)c1 [S-5] | .344 | – | .406 | .270 | – | – | –
